From article PMC6677831, “X-ray Crystallographic Structure and Oligomerization of Gloeobacter Rhodopsin” (Scientific Reports, 2019)
Results are given in words; binding and its absence hold for the method and conditions named.

Legend:
[1] = target: Gloeobacter rhodopsin (Gloeobacter violaceus PCC 7421) (UniProt Q7NP59); test: SEC; Superdex 200 10/300 GL; 20 mM sodium citrate pH 3.0, 300 mM NaCl, 0.04% DDM; both purified
[2] = target: Gloeobacter rhodopsin (Gloeobacter violaceus PCC 7421) (UniProt Q7NP59); test: negative-stain electron microscopy; sample from the SEC peak at pH 3.0, around 0.05 mg/mL, carbon coated grids, 2% uranyl acetate; both purified

- binding [1]: no binding (condition: at pH 3.0)
- binding [2]: no binding (condition: at pH 3.0)
B1: Gloeobacter rhodopsin (natural protein, Gloeobacter violaceus PCC 7421)
chain: MLMTVFSSAPELALLGSTFAQVDPSNLSVSDSLTYGQFNLVYNAFSFAIAAMFASALFFFSAQALVGQRYRLALLVSAIVVSIAGYHYFRIFNSWDAAYVLENGVYSLTSEKFNDAYRYVDWLLTVPLLLVETVAVLTLPAKEARPLLIKLTVASVLMIATGYPGEISDDITTRIIWGTVSTIPFAYILYVLWVELSRSLVRQPAAVQTLVRNMRWLLLLSWGVYPIAYLLPMLGVSGTSAAVGVQVGYTIADVLAKPVFGLLVFAIALVKTKADQESSEPHAAIGAAANKSGGSLIS
modifications: all-trans-retinal covalently bound to Lys257 via a protonated Schiff base
notes: Gloeobacter rhodopsin (GR), light-driven proton pump of Gloeobacter violaceus PCC 7421; 33 kDa; Membrane protein in detergent micelles (0.04% DDM) in the oligomerisation experiments; also called GR; wild-type GR; source: E. coli C43(DE3), purified (TALON Co2+ column, Superdex 200) in OG or DDM
